From PubChem BioAssay AID1508600 (Functional Genomics Laboratory (NCATS/FGL), 2020)
Among all 53,000 sequences or so, about 3,700 (7%) were called active.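 How the source made its calls: active means gene knockdowns whose robust z-score for IL-1 alpha signal is at least 2 or at most -2, so actives lie on both sides; inactive means the rest.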 The list shows a part of the results.

Test: Components of the Cytosolic LPS Sensing Pathway: Gene Identification via Genome-wide siRNA Screen;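 further: robust z of the log signal after scaling to non-targeting control siRNA wells of the plate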
Conditions: RAW264.7 macrophages, IL-1a HTRF, actives lie on both sides, screened at 100 nM (by protocol), cells primed 5 h with Pam3CSK4 first
Outline: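 Using IL-1a HTRF as read-out, the screen measured release from RAW264.7 cells after 48h siRNA knockdown (100 nM), 5 h Pam3CSK4 priming and 24 h cytosolic LipidA. Values were expressed relative to negative-control wells as robust z-scores.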

Sequence | z-score
GGUUCUUACAGCUAUAGAATT against Spo11 | inactive: 0.954
GCAGUUUGGGAGCCCAAUATT against Slc16a13 | inactive: -0.516
GGACUUUGUUGUAAAGCACTT against Asgr2 | inactive: -0.826
GCCAGUAUGCUGUAUGGCUTT against Bcas3 | inactive: -0.712
GGUCAAAGAUGCUAUAAAATT against Olfr993 | inactive: -0.843
GCGGGUAUGAUGGUACCUUTT against Pomt2 | inactive: 1.39
GGCCAGUCGGAAAAUCUUATT against Atp7b | inactive: 0.753
GGAAAAUGAGAUCAUGCCCTT against Sdf4 | inactive: -0.488
GGAAGUCCUGCCAUUUAUATT against Ranbp2 | inactive: -1.51
GGCCUUCACGUCUGGAAAUTT against Cnot10 | inactive: -0.163
CGAAAAGGUGUGGCCAUCATT against Eif4a3 | inactive: -0.664
GGAAAUCCAACAGCAGAUCTT against Rnf167 | inactive: -0.825
GGGCCUUUUUGAGUACGACTT against Cryaa | inactive: 0.904
GGUUUGUCUCCAUUCUUAUTT against Pnp | inactive: -0.675
GGAAAAAGAGAAUUCGAUATT against Wee1 | inactive: -1.2
GGCUGUCAUCCAAGAACUUTT against Mtcp1 | inactive: 0.176
GGAUUUGGCUAUAAGGGUUTT against Ppia | inactive: 1.39
GGUCUUGGCUGAUUUUAUGTT against Cyp24a1 | inactive: 0.669
GGCAUUAAAGUACAGCAUGTT against Immt | inactive: 0.502
GGGCUUUCCCAGUUCCUAATT against Bmp6 | active: 2.04
GCUGCCACUGGACACAUAATT against 4930591A17Rik | inactive: -0.0198
GGUAGACUGGUCAGAUACATT against Rexo4 | inactive: -1.49

Sequence | z-score
GGCAGUGAUGUUUCUCUCGTT against Tmem198b | inactive: 0.152
GGUAUGAAUCUGGAGAUCATT against Por | inactive: 0.467
GCUAGCAAUUAAAAGAUCGTT against Ppp2r2c | inactive: 0.172
GAGACCUUCACAAAGUUGUTT against Hnrnpll | inactive: 0.599
CGAUGUGACUGGUUUAAGGTT against Wtap | inactive: -1.02
GGACUAAUUGGCCUCUGCUTT against Rpl22l1 | inactive: 0.638
CCUAGAAGUCAUUAAGACGTT against Slc25a33 | inactive: -0.514
CCAAAUGUAGCGGAACUGATT against Rsu1 | inactive: 0.195
GGAUUGUUUAUCUGUCUUCTT against Cyp3a44 | inactive: -1.05
GGUACACCUUCCUUCCCUUTT against Mogs | inactive: -1.96
GGAAACAGAACCAAGUUAATT against Thyn1 | inactive: 0.931
GGAGGUGACUAUCAUUUUUTT against Gng4 | inactive: -0.498
CGGGAUUCUUCUCCUUGAATT against Dnal4 | inactive: 0.428
CGUGUAGUGAAAAAUCUUGTT against Sertm1 | inactive: 1.22
CCUAAUGAUGAGAUUAAUGTT against 1810024B03Rik | inactive: 0.541
GGACAUCCAGACAAUGAGGTT against Fam13b | inactive: -1.62
GGACUCUUUUGGACCUAAGTT against Hilpda | inactive: -1.24
GGUGGCUAUUAAAAGUAUUTT against Ulk2 | inactive: 0.581
GGUGAAAAGAGAUUUGAAUTT against Sp4 | inactive: 0.587
CCUAAAAGGGUUUUGCUUCTT against Macroh2a2 | inactive: 0.291
GGAGCAGAAAGAAAUUUCCTT against Gpa33 | inactive: 0.48
CCUUAAUACAACUUGUCCCTT against Dennd4b | inactive: -0.0332

Sequence | z-score
CCAUAUGUGAGACAACACATT against Tas2r136 | inactive: -1.87
GCCAUUGCCUCAUAAUUUATT against Pam16 | inactive: 1.1
GCAAUAGACCGUUAAUGGATT against Tslp | inactive: 0.127
CCUUCGAUAAAUCUCAAAUTT against Stambp | inactive: 1.27
GAAGACCAAGCUUUGUACUTT against Olfr339 | active: 2.28
GGAAAAGGAAUGUGAAUACTT against Celsr2 | inactive: -1.94
GGAAGAGGAGAAUGUCUUGTT against Traip | inactive: 0.291
CGUAUUAUUGUCAUGCUGUTT against Gpr142 | inactive: 0.493
GCACAUGCCAACUCAUUCUTT against Ergic1 | inactive: 0.541
GCCUCUAUCUGUACUCUGGTT against Pdk2 | inactive: -0.944
GGAGAUGAGCUGUAUGUGATT against Nudt19 | inactive: 0.862
GGAAAAAGAACACCUUUUATT against Ints6l | inactive: -0.74
GUGUCCUGAACCUUGUCCCTT against Sprr2g | inactive: 0.978
GGGAGUCCUACGCAUAUGATT against BC051665 | inactive: -0.928
GGUACAAUGUUCAUACCAATT against Rab9b | inactive: 0.528
GGCUCGUGAGCAUUCACUGTT against Nfrkb | inactive: -0.664
UGGUGCUGCUAUCUAUACCTT against Olfr330 | inactive: 1.01
GCAGCACACUUGGUACAUCTT against Icmt | inactive: 1.88
CCUCAAGGCACUAAUAGAATT against Car7 | inactive: -0.541
GCUGUUUGAUAAAACAAGATT against Snx6 | inactive: 0.758
GUCUGCUCAUCGACAGCUATT against Ripor1 | inactive: -0.829
GGCUUAUCACAGGAAGAUCTT against Atg4c | inactive: -0.597

Not a retest: an excerpt of the list.
Sequence | z-score
CCAAAUGUAGCGGAACUGATT against Rsu1 | inactive: 0.195
GGAUUGUUUAUCUGUCUUCTT against Cyp3a44 | inactive: -1.05
GGUACACCUUCCUUCCCUUTT against Mogs | inactive: -1.96
GGAAACAGAACCAAGUUAATT against Thyn1 | inactive: 0.931
GGAGGUGACUAUCAUUUUUTT against Gng4 | inactive: -0.498
CGGGAUUCUUCUCCUUGAATT against Dnal4 | inactive: 0.428
CGUGUAGUGAAAAAUCUUGTT against Sertm1 | inactive: 1.22
CCUAAUGAUGAGAUUAAUGTT against 1810024B03Rik | inactive: 0.541
GGACAUCCAGACAAUGAGGTT against Fam13b | inactive: -1.62
GGACUCUUUUGGACCUAAGTT against Hilpda | inactive: -1.24
GGUGGCUAUUAAAAGUAUUTT against Ulk2 | inactive: 0.581
GGUGAAAAGAGAUUUGAAUTT against Sp4 | inactive: 0.587
CCUAAAAGGGUUUUGCUUCTT against Macroh2a2 | inactive: 0.291
GGAGCAGAAAGAAAUUUCCTT against Gpa33 | inactive: 0.48
CCUUAAUACAACUUGUCCCTT against Dennd4b | inactive: -0.0332
CCAUAUGUGAGACAACACATT against Tas2r136 | inactive: -1.87
GCCAUUGCCUCAUAAUUUATT against Pam16 | inactive: 1.1
GCAAUAGACCGUUAAUGGATT against Tslp | inactive: 0.127
CCUUCGAUAAAUCUCAAAUTT against Stambp | inactive: 1.27
GAAGACCAAGCUUUGUACUTT against Olfr339 | active: 2.28
GGAAAAGGAAUGUGAAUACTT against Celsr2 | inactive: -1.94
GGAAGAGGAGAAUGUCUUGTT against Traip | inactive: 0.291
CGUAUUAUUGUCAUGCUGUTT against Gpr142 | inactive: 0.493
GCACAUGCCAACUCAUUCUTT against Ergic1 | inactive: 0.541
GCCUCUAUCUGUACUCUGGTT against Pdk2 | inactive: -0.944
GGAGAUGAGCUGUAUGUGATT against Nudt19 | inactive: 0.862
GGAAAAAGAACACCUUUUATT against Ints6l | inactive: -0.74
GUGUCCUGAACCUUGUCCCTT against Sprr2g | inactive: 0.978
GGGAGUCCUACGCAUAUGATT against BC051665 | inactive: -0.928
GGUACAAUGUUCAUACCAATT against Rab9b | inactive: 0.528
GGCUCGUGAGCAUUCACUGTT against Nfrkb | inactive: -0.664
UGGUGCUGCUAUCUAUACCTT against Olfr330 | inactive: 1.01
GCAGCACACUUGGUACAUCTT against Icmt | inactive: 1.88

Following part.

Sequence | z-score
CCUGUUUUAUGCCACAAUUTT against Tas2r125 | inactive: 0.0722
CCUAUUGUCCUGCUAACAATT against Aldh7a1 | inactive: -0.177
GGAUCAUAGAGCAUCUUGATT against Sectm1a | inactive: 0.0412
GGGAAGAGGAUAGGAUUCGTT against Ntpcr | inactive: 0.156
GGCCUGUACGGAGAUCAAUTT against Dpp7 | inactive: 0.331
GGUUGUGUAUGUGGAAAGUTT against Ppm1j | inactive: 1.57
GGUGACUGUCCUAUGAUAUTT against Crip2 | inactive: -0.551
GCCCAUCUAGGAUCUAUAUTT against F9 | inactive: -1.58
GGAAGUGUCCAGCAAUUAGTT against Stc2 | inactive: 0.0287
CGUUGCUGAGAACGAGUCGTT against Pomc | inactive: -1.13
GGCCACAAGAUACAUAUAUTT against Bmi1 | inactive: -1.33
AUCAGGGAUCCUAACAUCATT against Ly6c1 | inactive: -1.01
CGUGAAAGAUCAUCUCAGATT against 4933427D14Rik | inactive: -1.7
GGUCUCUGUAGAGAUGGCATT against 6820408C15Rik | active: -2.52
GGUGAUUACUCUUAUGUGATT against Slc7a8 | inactive: -0.663
GGAAUACCAGGCCUUCCUUTT against B4galnt1 | inactive: -0.886
CCUCAUUUAGAUGUCUUGATT against Ran | inactive: -0.0987
GCUCAGACUAGAUUAAUGUTT against Gmeb2 | inactive: -1.17
GGAAGUCUGUCCAAGGUAUTT against Olfr192 | inactive: -1.17
GGCUUAGGGACUAUGAGGATT against Clec4f | inactive: 0.125
GCCAAAUACGUGUAUGACUTT against Sfxn3 | inactive: -1.84
GGAGAACUGAUAAAGCUUUTT against Tas2r105 | inactive: 0.086

Sequence | z-score
GGCUUGUGGAUGAAUUGUATT against Cldn8 | inactive: -0.382
CGCAGGAUAUUUCUAUCCATT against Prl7b1 | inactive: -0.277
GGCUCUAACUGUGAGAAGATT against Dll3 | active: -2.44
CCCUUGUGAUGUGGUGAAGTT against Slc25a22 | inactive: -1.5
GUGAUGUCACCCACGAAAGTT against Erdr1 | inactive: 0.356
GGAGAAGGUCAUUCUGAUGTT against Specc1l | inactive: -0.0983
GCUGAAAUCCUUAAUCUCGTT against Col6a3 | inactive: 1.55
GGCAUCUUUACAUUUGUGATT against Sap30 | inactive: 0.988
GGACCAUAAAACAGUCUGATT against Endod1 | inactive: -0.627
GCCAUGUGAGACUCUUAUATT against Slc2a9 | inactive: 0.62
GGUUCUUGAAACACUUUACTT against Hvcn1 | inactive: 0.843
GGAAUGGAAAUUUGAUACUTT against Eif4a3 | inactive: -0.7
GGUUCUCCGAACUCUGUUGTT against Gbf1 | inactive: -1.44
CCUGCUACAAGUAUCUCAATT against Fdft1 | active: 2.85
GUGUUCAGCAAUUCCUACCTT against Tma7 | inactive: 1.3
GGCUAUCUGAUUUUUGUUGTT against Nlrp3 | inactive: -0.0259
CCUAAUCUCUUGUAGGUAUTT against AU018091 | inactive: 1.03
GGUUUUCAAAUGUCUAUCATT against Pithd1 | active: 2.37
GGCAAAAGUGUGAACAGUUTT against Sftpb | inactive: -0.213
